These are yes or no findings as the source states them, for the method shown. A result given as binding can be weak or reduced; the word gives no strength.
Target: T1, Cytoplasmic domain of mouse β-dystroglycan (recombinant) (mouse) (UniProt Q62165)
T1 sequence: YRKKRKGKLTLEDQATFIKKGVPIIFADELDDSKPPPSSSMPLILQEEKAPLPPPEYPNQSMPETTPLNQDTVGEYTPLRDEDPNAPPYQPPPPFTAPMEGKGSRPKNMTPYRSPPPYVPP
Test: phage display selection; recombinant β-DG adhered to 6-well plastic plates (1 µg/ml in PBS, overnight at 4°C), blocked with 5% milk in PBS/0.05% Tween 20; 10^10 pfu of human SH3 phage library (n = 296) per well, 2 hours; second selection with a secondary library; clones identified by sequencing; only the target purified

Amino acid sequences for entries named in this document (tags omitted). A change or cut given only in a name is not applied to a line headed by its entry.
UniProt A1X283: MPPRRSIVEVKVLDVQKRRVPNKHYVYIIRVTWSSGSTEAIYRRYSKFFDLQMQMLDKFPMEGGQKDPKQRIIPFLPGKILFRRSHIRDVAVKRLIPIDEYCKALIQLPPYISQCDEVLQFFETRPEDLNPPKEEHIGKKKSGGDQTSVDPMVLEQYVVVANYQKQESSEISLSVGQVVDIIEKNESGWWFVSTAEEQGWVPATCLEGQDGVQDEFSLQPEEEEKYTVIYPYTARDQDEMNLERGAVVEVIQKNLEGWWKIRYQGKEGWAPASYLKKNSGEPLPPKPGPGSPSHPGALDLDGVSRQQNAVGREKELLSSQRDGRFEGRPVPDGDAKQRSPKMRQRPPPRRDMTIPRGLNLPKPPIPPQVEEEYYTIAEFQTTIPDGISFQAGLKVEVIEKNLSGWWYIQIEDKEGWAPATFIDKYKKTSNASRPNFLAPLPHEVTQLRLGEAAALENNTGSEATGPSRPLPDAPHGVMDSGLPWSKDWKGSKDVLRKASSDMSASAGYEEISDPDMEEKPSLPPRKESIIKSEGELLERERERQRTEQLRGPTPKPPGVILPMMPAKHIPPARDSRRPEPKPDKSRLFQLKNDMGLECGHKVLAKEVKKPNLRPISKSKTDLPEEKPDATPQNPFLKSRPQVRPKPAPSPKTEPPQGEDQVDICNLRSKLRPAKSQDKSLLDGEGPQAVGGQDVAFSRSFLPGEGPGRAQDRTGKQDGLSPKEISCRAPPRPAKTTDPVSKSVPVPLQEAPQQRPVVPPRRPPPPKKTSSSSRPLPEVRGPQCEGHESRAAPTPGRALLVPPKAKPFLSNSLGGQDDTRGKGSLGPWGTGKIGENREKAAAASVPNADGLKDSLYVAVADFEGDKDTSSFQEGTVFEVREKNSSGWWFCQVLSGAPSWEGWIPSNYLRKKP

“Third SH3 domain of Tks4 displayed on phage (from UniProt A1X283) (domain or fragment)” was tested, and the binding was “binds”.
